In article PMC7573076:
These are yes or no findings as the source states them, for the method shown. Binding seen in cells or lysates may run through a third protein. A yes stands for co-enrichment or nearness to the bait. Other partners may have been found. Tags and fused reporters may be left off the sequences shown.

Protein sequences, listed by entry. Tags and fused reporters are not part of them. Residues count along the entry.
UniProt Q8JFP1: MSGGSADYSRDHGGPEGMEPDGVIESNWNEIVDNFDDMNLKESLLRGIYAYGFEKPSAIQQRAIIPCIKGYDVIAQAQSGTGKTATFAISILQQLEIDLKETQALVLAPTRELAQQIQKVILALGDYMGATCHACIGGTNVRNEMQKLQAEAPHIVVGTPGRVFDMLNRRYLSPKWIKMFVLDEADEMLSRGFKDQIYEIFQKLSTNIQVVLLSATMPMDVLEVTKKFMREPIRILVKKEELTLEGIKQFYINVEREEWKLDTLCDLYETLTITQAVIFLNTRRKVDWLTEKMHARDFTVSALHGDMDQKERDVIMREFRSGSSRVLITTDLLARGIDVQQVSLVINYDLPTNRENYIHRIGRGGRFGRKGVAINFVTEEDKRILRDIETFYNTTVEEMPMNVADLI
UniProt P08106: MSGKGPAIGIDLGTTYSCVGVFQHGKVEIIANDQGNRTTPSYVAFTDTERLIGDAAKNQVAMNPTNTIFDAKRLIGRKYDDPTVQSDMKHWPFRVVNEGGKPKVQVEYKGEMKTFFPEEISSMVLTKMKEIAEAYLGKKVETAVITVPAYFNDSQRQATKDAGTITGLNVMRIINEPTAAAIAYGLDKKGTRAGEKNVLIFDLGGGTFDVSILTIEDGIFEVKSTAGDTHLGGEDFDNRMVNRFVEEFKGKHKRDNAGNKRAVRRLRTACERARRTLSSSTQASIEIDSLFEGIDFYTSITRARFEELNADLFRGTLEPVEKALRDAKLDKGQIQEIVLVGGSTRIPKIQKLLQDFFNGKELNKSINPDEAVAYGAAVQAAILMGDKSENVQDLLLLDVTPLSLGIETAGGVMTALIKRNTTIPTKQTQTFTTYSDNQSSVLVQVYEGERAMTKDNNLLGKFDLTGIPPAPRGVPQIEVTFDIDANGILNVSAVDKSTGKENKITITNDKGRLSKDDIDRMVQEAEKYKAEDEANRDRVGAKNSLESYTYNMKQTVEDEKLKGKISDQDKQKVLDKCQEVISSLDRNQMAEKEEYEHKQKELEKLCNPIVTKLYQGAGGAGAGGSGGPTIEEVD
UniProt P51913: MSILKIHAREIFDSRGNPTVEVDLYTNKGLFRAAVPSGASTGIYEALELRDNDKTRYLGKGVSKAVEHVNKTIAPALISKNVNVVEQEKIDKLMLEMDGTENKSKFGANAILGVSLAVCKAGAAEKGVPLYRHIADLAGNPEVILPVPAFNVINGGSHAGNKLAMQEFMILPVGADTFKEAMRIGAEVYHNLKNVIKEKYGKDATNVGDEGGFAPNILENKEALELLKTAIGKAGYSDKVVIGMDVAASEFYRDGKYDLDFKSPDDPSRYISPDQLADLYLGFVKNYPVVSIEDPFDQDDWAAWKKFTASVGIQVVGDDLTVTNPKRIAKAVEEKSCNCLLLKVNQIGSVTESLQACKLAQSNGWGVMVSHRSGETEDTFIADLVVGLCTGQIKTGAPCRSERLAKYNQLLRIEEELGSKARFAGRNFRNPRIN
UniProt P00548: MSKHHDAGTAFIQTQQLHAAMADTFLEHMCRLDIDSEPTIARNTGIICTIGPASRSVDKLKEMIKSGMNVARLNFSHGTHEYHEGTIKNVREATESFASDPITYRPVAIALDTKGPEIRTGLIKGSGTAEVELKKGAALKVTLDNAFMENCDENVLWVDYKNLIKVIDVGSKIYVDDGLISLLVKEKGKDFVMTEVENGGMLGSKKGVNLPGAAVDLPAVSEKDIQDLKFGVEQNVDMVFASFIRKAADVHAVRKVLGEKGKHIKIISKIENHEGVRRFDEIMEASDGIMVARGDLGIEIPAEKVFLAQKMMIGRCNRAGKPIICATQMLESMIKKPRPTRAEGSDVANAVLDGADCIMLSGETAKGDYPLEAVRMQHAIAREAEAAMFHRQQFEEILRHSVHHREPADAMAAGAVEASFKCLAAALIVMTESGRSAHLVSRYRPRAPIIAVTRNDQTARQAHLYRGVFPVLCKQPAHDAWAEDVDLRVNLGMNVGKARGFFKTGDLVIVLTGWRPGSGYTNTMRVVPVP
UniProt Q90593, residues 17-652: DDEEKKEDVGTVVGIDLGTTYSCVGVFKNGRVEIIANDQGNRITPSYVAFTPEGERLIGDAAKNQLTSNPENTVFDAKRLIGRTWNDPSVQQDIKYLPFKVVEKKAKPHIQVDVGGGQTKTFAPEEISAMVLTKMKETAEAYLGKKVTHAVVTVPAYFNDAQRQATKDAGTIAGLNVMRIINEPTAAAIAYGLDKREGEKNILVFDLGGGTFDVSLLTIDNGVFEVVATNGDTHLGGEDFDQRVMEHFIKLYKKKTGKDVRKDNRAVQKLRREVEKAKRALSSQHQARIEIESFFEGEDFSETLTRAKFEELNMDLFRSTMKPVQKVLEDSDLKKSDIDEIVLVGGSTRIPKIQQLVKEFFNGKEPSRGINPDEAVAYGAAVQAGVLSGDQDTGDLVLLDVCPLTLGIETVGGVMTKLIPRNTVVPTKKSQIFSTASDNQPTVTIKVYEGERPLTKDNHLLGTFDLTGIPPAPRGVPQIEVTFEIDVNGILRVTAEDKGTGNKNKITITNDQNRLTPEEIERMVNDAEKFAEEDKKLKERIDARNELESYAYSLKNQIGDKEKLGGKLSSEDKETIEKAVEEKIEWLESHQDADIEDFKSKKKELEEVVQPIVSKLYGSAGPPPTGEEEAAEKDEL
UniProt F1NWX0: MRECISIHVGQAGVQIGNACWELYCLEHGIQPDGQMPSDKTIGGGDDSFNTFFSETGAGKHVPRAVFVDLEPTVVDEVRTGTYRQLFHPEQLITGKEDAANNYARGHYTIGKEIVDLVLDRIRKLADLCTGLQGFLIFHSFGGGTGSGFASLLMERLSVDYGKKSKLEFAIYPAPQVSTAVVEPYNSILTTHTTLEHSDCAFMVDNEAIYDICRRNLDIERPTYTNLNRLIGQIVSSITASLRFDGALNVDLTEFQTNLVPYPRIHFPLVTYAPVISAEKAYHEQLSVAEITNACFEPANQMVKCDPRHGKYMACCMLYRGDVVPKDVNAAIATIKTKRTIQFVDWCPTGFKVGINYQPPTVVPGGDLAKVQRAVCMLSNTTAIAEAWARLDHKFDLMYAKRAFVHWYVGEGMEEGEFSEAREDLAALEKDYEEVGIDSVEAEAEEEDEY
UniProt O73885: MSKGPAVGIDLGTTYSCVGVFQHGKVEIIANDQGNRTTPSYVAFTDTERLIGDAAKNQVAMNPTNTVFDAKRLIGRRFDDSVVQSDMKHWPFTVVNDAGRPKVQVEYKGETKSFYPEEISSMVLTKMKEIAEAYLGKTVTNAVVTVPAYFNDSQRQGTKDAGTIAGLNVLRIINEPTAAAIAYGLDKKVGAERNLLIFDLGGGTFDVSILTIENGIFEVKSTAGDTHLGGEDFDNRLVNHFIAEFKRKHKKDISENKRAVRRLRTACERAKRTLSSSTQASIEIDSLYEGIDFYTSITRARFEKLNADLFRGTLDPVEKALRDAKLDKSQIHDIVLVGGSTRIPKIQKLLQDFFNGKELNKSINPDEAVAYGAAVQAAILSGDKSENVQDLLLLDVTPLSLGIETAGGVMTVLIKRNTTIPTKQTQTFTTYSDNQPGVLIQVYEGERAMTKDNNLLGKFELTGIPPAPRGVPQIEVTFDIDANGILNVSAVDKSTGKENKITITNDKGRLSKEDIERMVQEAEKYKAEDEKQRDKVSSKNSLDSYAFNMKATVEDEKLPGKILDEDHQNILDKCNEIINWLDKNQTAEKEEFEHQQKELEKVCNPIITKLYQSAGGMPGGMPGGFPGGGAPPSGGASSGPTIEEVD

T1: GST–chMDA5-N (chicken) (UniProt D9N195)
T1 sequence: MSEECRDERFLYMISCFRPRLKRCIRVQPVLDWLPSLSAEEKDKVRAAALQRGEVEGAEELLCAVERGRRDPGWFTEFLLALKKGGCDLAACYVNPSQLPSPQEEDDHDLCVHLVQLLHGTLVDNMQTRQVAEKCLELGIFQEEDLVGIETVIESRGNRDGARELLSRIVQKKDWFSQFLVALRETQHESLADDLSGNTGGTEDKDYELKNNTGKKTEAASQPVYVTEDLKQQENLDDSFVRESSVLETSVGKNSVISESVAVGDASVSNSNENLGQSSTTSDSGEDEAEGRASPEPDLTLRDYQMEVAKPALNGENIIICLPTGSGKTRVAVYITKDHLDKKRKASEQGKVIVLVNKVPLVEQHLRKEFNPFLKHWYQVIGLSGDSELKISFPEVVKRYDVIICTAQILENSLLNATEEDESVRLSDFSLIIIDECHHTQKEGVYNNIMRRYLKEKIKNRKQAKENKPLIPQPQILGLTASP

B1: chicken NCL (protein, UniProt P15771 1-694)
chain: MVKLAKTPKNQMKQKKMAPPPKKVEESEEEESSDLEESSGEEVMVPPKKQQKAAVTPAKKAATPAKKAATPAKKAVTPAKKAVATPAKKAVAPSPKKAAVVGKGAKNGKNAKKEESEEEDEDDEDDEEDEDEEEESDEEEEPAVPVKPAAKKSAAAVPAKKPAVVPAKQESEEEEEEDDEEEDEEDDESEDEAMDTTPAPVKKPTPAKATPAKAKAESEDEEDEEDEDEDEEDEDDEEEDEEESEDEKPVKEAPGKRKKEMANKSAPEAKKKKTETPASAFSLFVKNLTPTKDYEELRTAIKEFFGKKNLQVSEVRIGSSKRFGYVDFLSAEDMDKALQLNGKKLMGLEIKLEKAKSKESLKENKKERDARTLFVKNLPYRVTEDEMKNVFENALEVRLVLNKEGSSKGMAYIEFKTEAEAEKALEEKQGTEVDGRAMVIDYTGEKSQQESQKGGGERESKTLIVNNLSYAASEETLQELFKKATSIKMPQNNQGRPKGYAFVEFPTAEDAKEALNSCNNTEIEGRAIRLEFSSPSWQKGNMNARGGFNQQSKTLFVRGLSEDTTEETLRESFEGSISARIVTDRDTGSSKGFGFVDFSSPEDAKAAKEAMEDGEIDGNKVTLDFAKPKGEFQRGGGFGGGFGGRGGRGGRGGGRGGFGGRGGGRGFGGRGGGFRGGRGGGGDHKPQGKKIKFE
B2: chicken PRDX1 (protein, UniProt P0CB50 1-199)
chain: MSSGKAFIGKPAPDFTATAVMPDGQFKDIKLSDYRGKYVVFFFYPLDFTFVCPTEIIAYSDRADEFKKINCEIIGASVDSHFCHLAWINTPKKQGGLGTMKIPLVSDTKRVIAKDYGVLKEDEGIAYRGLFIIDEKGILRQITINDLPVGRSVDETLRLVQAFQFTDKHGEVCPAGWKPGSDTIKPDVQKSKEYFSKQK
B3: chicken LRRC59 (protein, UniProt Q5F334 1-339)
chain: MARGGGKSGSLKDKLDGNELDLSLCGLSEVPVRELAALPKATVLDLSCNSLVSLPSDFCSLTHLVKLDLSKNRLQQLPVDFGRLVSLQHLDLLNNRLVTLPVSFAQLKLSLHHSPVEILSRLLGTPSSLLVFHSFHSWENQNLKWLDLKDNPLDPVLAKVAGDCLDEKQCKQAAVRVLQHMKVIQSEQDRERQRKLQAEREMEKKREAEQRAREAQERELRKREKAEEKERRRREYDAQRAAKQEMEKKTKKETVQTRKLASSSRPPQPARHKHSWSRSVLRALLLVLLCILCTLAVCKLTELQHQPLCVSVNTLYEDVVAAVQNHKTLQNMLQQNSQQ

Target: T1, GST–chMDA5-N (chicken)
Assay: affinity purification with mass spectrometry; DF1 cells transfected with pCDNA3.1-GST–chMDA5-N or empty GST vector, lysed 24 h later in RIPA buffer at 4°C, glutathione–agarose beads, elution with reduced glutathione, LC–MS/MS of the eluate and of differential silver-stained bands; proteins of the control removed

binding, binds:
chicken EEF1A1
chicken hnRNPA2B1
chicken RBM25
chicken RBM39
chicken hnRNPH2
chicken EIF4A2 (from UniProt Q8JFP1 1-407)
chicken HSP70 (from UniProt P08106 1-634)
chicken ENO1 (from UniProt P51913 1-434)
chicken PABPC1
chicken PKM (from UniProt P00548 1-530)
chicken HSPA5 (from UniProt Q90593 17-652)
chicken TUBB4B
chicken TUBA3E (from UniProt F1NWX0 1-450)
chicken ARF1
chicken HSPA8 (from UniProt O73885 1-646)
chicken DDX5
chicken RUVBL3
chicken SRSF3
chicken IFIT5
chicken TUBA1A1
chicken FXR1
B1
B2
B3
